At least one structure is not confirmed: it was looked up by name or label, or the drawing left a doubt.
Experiments:
[1] = system: Acyclovir-resistant HSV-1 (F) mutants; format: cell-based, herpes simplex virus 1; conditions: in vitro viral replication assay
[2] = system: Wild-type HSV-1 (F); assay: in vitro viral replication assay, wild-type HSV-1 (F); format: cell-based, herpes simplex virus 1
[3] = system: HSV-2 G; assay: in vitro viral replication assay, human HSV-2 G; format: cell-based, herpes simplex virus 2

Compound | IC50 Acyclovir-resistant HSV-1 (F) mutants [1] | IC50 Wild-type HSV-1 (F) [2] | IC50 human HSV-2 G [3]
Cc1nc(N(C)C(=O)Cc2ccc(-c3ccccc3)cc2)sc1S(N)(=O)=O [Example 5] | 3,E−08 μM | – | –
Cc1nc(N(C)C(=O)Cc2ccc(-c3cc(F)ccc3F)cc2)sc1S(N)(=O)=O [Example 6] | 5,E−07 μM | 5,E−07 μM | 5,E−07 μM
